Drawing on the supplement of paper PMC6411743, this text covers NP40-soluble protein abundance for 60 targets.

Sequences of proteins named here, by UniProt entry; tags and fusion partners are left off. A change or cut given only in a name is not applied to a line headed by its entry.
UniProt Q9Y4F3: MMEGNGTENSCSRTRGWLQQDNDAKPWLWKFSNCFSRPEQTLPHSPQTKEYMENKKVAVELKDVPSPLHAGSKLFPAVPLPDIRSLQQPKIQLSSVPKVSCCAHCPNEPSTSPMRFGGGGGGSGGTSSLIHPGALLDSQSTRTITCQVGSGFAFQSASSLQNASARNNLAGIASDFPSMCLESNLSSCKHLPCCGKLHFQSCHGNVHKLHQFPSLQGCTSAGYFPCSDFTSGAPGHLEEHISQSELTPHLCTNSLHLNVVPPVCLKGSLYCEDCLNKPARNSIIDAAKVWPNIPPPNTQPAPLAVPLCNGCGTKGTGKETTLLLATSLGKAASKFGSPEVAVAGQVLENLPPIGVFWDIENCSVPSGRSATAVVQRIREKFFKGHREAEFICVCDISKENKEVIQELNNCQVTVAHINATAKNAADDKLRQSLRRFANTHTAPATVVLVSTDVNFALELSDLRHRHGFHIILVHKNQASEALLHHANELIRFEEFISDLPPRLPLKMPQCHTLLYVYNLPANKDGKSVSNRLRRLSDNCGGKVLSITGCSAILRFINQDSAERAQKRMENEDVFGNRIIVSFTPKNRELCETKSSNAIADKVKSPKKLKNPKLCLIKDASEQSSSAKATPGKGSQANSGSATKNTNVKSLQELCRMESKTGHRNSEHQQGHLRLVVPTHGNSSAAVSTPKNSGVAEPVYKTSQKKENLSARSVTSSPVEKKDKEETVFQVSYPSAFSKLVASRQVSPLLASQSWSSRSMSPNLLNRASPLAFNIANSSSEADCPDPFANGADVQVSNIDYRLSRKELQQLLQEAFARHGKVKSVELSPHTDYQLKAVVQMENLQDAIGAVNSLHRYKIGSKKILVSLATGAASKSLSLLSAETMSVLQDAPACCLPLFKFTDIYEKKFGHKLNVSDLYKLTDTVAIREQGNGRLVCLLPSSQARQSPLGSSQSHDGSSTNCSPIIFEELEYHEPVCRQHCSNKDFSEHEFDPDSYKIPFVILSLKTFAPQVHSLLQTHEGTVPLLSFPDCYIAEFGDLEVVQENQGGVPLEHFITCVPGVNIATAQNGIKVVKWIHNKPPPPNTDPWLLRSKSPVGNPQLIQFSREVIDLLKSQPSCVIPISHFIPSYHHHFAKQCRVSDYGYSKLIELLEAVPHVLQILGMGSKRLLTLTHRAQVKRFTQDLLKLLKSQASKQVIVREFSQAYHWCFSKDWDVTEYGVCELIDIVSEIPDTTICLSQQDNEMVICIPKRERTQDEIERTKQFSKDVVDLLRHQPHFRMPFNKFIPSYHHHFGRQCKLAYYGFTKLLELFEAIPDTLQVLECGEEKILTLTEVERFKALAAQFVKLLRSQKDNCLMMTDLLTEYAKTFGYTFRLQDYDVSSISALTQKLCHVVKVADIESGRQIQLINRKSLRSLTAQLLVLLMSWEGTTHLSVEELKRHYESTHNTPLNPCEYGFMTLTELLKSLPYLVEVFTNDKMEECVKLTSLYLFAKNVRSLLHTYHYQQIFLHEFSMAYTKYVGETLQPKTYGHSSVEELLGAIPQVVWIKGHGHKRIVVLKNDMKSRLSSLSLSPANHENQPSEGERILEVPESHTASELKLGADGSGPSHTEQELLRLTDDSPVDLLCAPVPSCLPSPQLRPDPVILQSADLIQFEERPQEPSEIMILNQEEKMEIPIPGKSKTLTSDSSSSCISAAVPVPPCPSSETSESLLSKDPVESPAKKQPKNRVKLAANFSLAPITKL
UniProt Q9Y6Q9, whole entry, looked up: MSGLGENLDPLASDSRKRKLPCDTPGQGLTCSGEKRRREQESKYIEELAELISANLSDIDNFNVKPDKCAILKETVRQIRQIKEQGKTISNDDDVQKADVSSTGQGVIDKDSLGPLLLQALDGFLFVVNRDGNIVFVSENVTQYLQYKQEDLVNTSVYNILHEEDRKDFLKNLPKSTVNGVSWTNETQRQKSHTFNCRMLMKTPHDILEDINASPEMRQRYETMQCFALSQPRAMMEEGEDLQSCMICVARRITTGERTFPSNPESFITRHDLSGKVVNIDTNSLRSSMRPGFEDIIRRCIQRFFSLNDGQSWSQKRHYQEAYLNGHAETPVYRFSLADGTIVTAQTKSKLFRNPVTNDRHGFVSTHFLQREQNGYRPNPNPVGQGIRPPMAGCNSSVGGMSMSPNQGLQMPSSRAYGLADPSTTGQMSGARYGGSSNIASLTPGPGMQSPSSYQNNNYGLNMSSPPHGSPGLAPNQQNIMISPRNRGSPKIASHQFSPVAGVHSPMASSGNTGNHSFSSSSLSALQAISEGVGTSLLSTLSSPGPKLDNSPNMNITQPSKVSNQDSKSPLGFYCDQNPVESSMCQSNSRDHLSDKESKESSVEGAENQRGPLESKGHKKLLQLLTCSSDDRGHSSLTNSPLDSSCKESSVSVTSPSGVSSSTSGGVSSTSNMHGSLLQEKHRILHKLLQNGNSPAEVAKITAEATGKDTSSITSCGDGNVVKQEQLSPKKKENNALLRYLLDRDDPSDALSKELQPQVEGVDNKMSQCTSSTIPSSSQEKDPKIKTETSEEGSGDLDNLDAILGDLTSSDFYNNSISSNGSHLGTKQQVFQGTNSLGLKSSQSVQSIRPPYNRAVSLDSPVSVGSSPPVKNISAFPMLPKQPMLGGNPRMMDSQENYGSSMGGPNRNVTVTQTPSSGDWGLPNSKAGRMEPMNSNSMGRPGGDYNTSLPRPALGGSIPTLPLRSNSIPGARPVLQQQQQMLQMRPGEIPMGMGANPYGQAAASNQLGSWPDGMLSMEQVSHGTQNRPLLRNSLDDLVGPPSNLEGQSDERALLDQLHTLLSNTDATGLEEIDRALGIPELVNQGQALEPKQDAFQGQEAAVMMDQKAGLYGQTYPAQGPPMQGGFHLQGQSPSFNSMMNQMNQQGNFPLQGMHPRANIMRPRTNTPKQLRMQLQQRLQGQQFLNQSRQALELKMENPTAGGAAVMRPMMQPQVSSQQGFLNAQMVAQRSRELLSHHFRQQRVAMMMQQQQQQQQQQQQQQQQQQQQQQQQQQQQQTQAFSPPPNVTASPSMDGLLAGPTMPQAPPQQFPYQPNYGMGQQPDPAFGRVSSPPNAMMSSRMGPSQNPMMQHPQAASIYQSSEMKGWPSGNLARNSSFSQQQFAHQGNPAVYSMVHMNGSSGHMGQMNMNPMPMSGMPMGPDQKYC
UniProt Q9Y2A7: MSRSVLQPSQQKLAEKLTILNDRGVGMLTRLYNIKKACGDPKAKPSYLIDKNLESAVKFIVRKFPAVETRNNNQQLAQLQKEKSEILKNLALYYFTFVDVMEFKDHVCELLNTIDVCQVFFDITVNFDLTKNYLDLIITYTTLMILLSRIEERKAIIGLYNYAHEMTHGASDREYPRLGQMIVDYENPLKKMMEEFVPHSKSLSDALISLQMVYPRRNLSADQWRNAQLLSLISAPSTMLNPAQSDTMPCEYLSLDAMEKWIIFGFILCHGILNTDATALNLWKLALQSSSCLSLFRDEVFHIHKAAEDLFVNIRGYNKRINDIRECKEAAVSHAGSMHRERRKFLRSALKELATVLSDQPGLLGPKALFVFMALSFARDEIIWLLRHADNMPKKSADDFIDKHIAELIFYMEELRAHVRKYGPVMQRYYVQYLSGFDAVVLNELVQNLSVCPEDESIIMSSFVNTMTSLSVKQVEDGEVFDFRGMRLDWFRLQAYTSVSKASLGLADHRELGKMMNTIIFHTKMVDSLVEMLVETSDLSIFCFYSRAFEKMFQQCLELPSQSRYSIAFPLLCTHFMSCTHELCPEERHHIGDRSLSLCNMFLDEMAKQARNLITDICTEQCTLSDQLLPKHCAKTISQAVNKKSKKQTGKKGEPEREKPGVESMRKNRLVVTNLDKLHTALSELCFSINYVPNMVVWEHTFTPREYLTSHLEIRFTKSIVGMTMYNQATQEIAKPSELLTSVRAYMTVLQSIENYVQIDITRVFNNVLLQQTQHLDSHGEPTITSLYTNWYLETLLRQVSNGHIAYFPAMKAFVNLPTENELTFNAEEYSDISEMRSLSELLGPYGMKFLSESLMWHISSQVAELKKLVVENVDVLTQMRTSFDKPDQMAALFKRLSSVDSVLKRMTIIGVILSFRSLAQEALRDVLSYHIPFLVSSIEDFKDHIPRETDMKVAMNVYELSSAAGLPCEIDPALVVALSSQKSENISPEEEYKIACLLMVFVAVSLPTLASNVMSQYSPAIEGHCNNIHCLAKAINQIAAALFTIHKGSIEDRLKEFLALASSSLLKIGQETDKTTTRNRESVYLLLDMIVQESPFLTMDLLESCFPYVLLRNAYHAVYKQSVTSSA
UniProt Q9Y5Z9: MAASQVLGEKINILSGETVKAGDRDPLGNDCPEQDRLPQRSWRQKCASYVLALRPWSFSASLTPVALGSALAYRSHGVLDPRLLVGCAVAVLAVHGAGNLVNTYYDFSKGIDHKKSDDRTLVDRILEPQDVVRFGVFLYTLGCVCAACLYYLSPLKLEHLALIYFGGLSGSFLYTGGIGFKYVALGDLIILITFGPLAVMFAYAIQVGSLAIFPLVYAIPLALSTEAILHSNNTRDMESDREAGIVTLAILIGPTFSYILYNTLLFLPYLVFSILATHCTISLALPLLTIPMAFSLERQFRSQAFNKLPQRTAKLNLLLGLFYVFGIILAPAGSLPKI
UniProt Q9Y3E2: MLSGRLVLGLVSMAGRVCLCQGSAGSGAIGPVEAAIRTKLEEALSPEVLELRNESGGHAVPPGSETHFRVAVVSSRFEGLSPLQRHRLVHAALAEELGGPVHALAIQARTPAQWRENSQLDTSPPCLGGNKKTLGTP

Compound in this experiment: Nc1ncnc2c1ncn2[C@@H]1O[C@H](COP(=O)(O)OP(=O)(O)OP(=O)(O)O)[C@@H](O)[C@H]1O [adenosine triphosphate]
The experiment in a line: NP40-soluble protein abundance relative to vehicle (solubility fold change) (ratio); higher = more soluble protein in presence of ATP. The procedure, abridged: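 Data come from three independent experiments in which Dounce-homogenised Jurkat crude lysate was treated at eight concentrations from 0.1 to 10 mM. Treatment ran 10 min at room temperature and then 3 min at 37 °C, after which 0.8% NP40 and benzonase were added for 60 min at 4 °C before ultracentrifugation. The supernatant underwent TMT labelling and LC-MS/MS, and vsn-normalised intensities were expressed as fold change against the detergent-processed vehicle in each replicate.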

± gives the standard deviation of the averaged measurements. Only a part is listed here, and it is no random draw. Small differences around the control level are noise.

On to UniProt Q9Y316 and related entries, for which the NP40-soluble protein abundance runs as follows: (concentration: 0.1mM) 1.06 ± 0.11; (concentration: 0.5mM) 1.01 ± 0.14.

Regarding TRAF6 (UniProt Q9Y4K3), the NP40-soluble protein abundance (concentration: 0.1mM) was 1.1 ± 0.16 and the NP40-soluble protein abundance (concentration: 0.5mM) worked out at 1.2 ± 0.26.

For the target UniProt Q9Y2Q9 and related entries, the NP40-soluble protein abundance (concentration: 0.1mM) turned out to be 0.907 ± 0.19 and the NP40-soluble protein abundance (concentration: 0.5mM) turned out to be 0.851 ± 0.15.

In the case of ARFGEF2 (UniProt Q9Y6D5), the NP40-soluble protein abundance was found to be 1.03 ± 0.024 (concentration: 0.1mM) and 1.03 ± 0.015 (concentration: 0.5mM).

As for RABGAP1 (UniProt Q9Y3P9), the NP40-soluble protein abundance (concentration: 0.1mM) stood at 0.991 ± 0.018 and the NP40-soluble protein abundance (concentration: 0.5mM) is 1.01 ± 0.053.

As to UFC1 (UniProt Q9Y3C8), the NP40-soluble protein abundance (concentration: 0.1mM) turned out to be 0.897 ± 0.17 and the NP40-soluble protein abundance (concentration: 0.5mM) is 0.84 ± 0.14.

Turning to RRP15 (UniProt Q9Y3B9), the NP40-soluble protein abundance (concentration: 0.1mM) was found to be 0.935 ± 0.072 and the NP40-soluble protein abundance (concentration: 0.5mM) came out at 0.9637 ± 0.0077.

For the target UniProt Q9Y2D5 and related entries, the NP40-soluble protein abundance by setting is: (concentration: 0.1mM) 0.862 ± 0.0087; (concentration: 0.5mM) 0.888 ± 0.033.

With “UniProt Q9Y2L9-2|Q9Y2L9 and related entries”, the NP40-soluble protein abundance came to 0.926 ± 0.062 (concentration: 0.1mM) and 0.935 ± 0.038 (concentration: 0.5mM).

Regarding CAPN7 (UniProt Q9Y6W3), the NP40-soluble protein abundance (concentration: 0.1mM) was 1.07 ± 0.055 and the NP40-soluble protein abundance (concentration: 0.5mM) was 1.06 ± 0.084.

Turning to UniProt Q9Y680 and related entries, the NP40-soluble protein abundance by setting is: (concentration: 0.1mM) 1.02 ± 0.087; (concentration: 0.5mM) 0.996 ± 0.058.

USP20 (UniProt Q9Y2K6): the NP40-soluble protein abundance (concentration: 0.1mM) was determined as 0.9997 ± 0.0093 and the NP40-soluble protein abundance (concentration: 0.5mM) came out at 1.04 ± 0.045.

As for TAF6L (UniProt Q9Y6J9), the NP40-soluble protein abundance came out at 1.03 ± 0.076 (concentration: 0.1mM) and 0.977 ± 0.063 (concentration: 0.5mM).

Consider UniProt Q9Y4F3 and related entries, for which the NP40-soluble protein abundance turned out to be 0.931 ± 0.1 (concentration: 0.1mM) and 0.982 ± 0.011 (concentration: 0.5mM).

UniProt Q9Y5V0: the NP40-soluble protein abundance (concentration: 0.1mM) is 0.983 ± 0.071 and the NP40-soluble protein abundance (concentration: 0.5mM) was 1.04 ± 0.15.

For TLN2 (UniProt Q9Y4G6), the NP40-soluble protein abundance runs as follows: (concentration: 0.1mM) 1.01 ± 0.057; (concentration: 0.5mM) 0.994 ± 0.06.

Turning to UniProt Q9Y692 and related entries, the NP40-soluble protein abundance runs as follows: (concentration: 0.1mM) 0.973 ± 0.05; (concentration: 0.5mM) 1.02 ± 0.011.

In the case of UniProt Q9Y4C2 and related entries, the NP40-soluble protein abundance came out at 1.13 ± 0.18 (concentration: 0.1mM) and 0.988 ± 0.025 (concentration: 0.5mM).

As to UniProt Q9Y3D0, the NP40-soluble protein abundance (concentration: 0.1mM) worked out at 0.909 ± 0.08 and the NP40-soluble protein abundance (concentration: 0.5mM) turned out to be 0.869 ± 0.12.

As to DNMT3A (UniProt Q9Y6K1), the NP40-soluble protein abundance runs as follows: (concentration: 0.1mM) 0.998 ± 0.017; (concentration: 0.5mM) 1.05 ± 0.046.

Turning to UniProt Q9Y6P5-2, the NP40-soluble protein abundance (concentration: 0.1mM) stood at 1.13 ± 0.16 and the NP40-soluble protein abundance (concentration: 0.5mM) came out at 1.08 ± 0.068.

With UniProt Q9Y5W9 and related entries, the NP40-soluble protein abundance by setting is: (concentration: 0.1mM) 0.959 ± 0.064; (concentration: 0.5mM) 0.936 ± 0.18.

LRRC42 (UniProt Q9Y546): the NP40-soluble protein abundance reads like this: (concentration: 0.1mM) 1.06 ± 0.089; (concentration: 0.5mM) 1.07 ± 0.058.

Consider UniProt Q9Y2I8 and related entries, for which the NP40-soluble protein abundance reads like this: (concentration: 0.1mM) 1.01 ± 0.022; (concentration: 0.5mM) 1.02 ± 0.052.

In the case of UniProt Q9Y6Q9 and related entries, the NP40-soluble protein abundance was found to be 0.994 ± 0.03 (concentration: 0.1mM) and 0.984 ± 0.021 (concentration: 0.5mM).

UniProt Q9Y3B4: the NP40-soluble protein abundance (concentration: 0.1mM) came to 1 ± 0.1 and the NP40-soluble protein abundance (concentration: 0.5mM) was found to be 0.998 ± 0.11.

For NME7 (UniProt Q9Y5B8), the NP40-soluble protein abundance (concentration: 0.1mM) was determined as 1 ± 0.099 and the NP40-soluble protein abundance (concentration: 0.5mM) came out at 0.995 ± 0.078.

Consider ZHX2 (UniProt Q9Y6X8), for which the NP40-soluble protein abundance is 0.964 ± 0.045 (concentration: 0.1mM) and 0.978 ± 0.015 (concentration: 0.5mM).

Regarding SAR1B (UniProt Q9Y6B6), the NP40-soluble protein abundance is, setting by setting: (concentration: 0.1mM) 1.09 ± 0.06; (concentration: 0.5mM) 1.09 ± 0.04.

TIMM22 (UniProt Q9Y584): the NP40-soluble protein abundance runs as follows: (concentration: 0.1mM) 0.854 ± 0.09; (concentration: 0.5mM) 0.849 ± 0.15.

Consider EXOSC1 (UniProt Q9Y3B2), for which the NP40-soluble protein abundance is 1.02 ± 0.073 (concentration: 0.1mM) and 1.05 ± 0.034 (concentration: 0.5mM).

As to FBXO7 (UniProt Q9Y3I1), the NP40-soluble protein abundance reads like this: (concentration: 0.1mM) 0.865 ± 0.042; (concentration: 0.5mM) 0.952 ± 0.011.

UniProt Q9Y320 and related entries: the NP40-soluble protein abundance (concentration: 0.1mM) was found to be 1.04 ± 0.052 and the NP40-soluble protein abundance (concentration: 0.5mM) is 1.01 ± 0.078.

As for MAD1L1 (UniProt Q9Y6D9), the NP40-soluble protein abundance (concentration: 0.1mM) is 1.02 ± 0.017 and the NP40-soluble protein abundance (concentration: 0.5mM) turned out to be 1 ± 0.076.

For UniProt Q9Y4W2 and related entries, the NP40-soluble protein abundance (concentration: 0.1mM) is 0.951 ± 0.057 and the NP40-soluble protein abundance (concentration: 0.5mM) came to 0.973 ± 0.052.

UniProt Q9Y3R5 and related entries: the NP40-soluble protein abundance (concentration: 0.1mM) was 1.01 ± 0.051 and the NP40-soluble protein abundance (concentration: 0.5mM) came out at 1.01 ± 0.041.

Take UniProt Q9Y2L5 and related entries: the NP40-soluble protein abundance (concentration: 0.1mM) amounted to 1.05 ± 0.039 and the NP40-soluble protein abundance (concentration: 0.5mM) turned out to be 1.03 ± 0.022.

As for HSPB11 (UniProt Q9Y547), the NP40-soluble protein abundance (concentration: 0.1mM) came out at 1.06 ± 0.11 and the NP40-soluble protein abundance (concentration: 0.5mM) is 1.08 ± 0.024.

UniProt Q9Y6R1 and related entries: the NP40-soluble protein abundance by setting is: (concentration: 0.1mM) 1.03 ± 0.067; (concentration: 0.5mM) 0.734 ± 0.1.

As to UniProt Q9Y2S0 and related entries, the NP40-soluble protein abundance is, setting by setting: (concentration: 0.1mM) 0.993 ± 0.072; (concentration: 0.5mM) 0.967 ± 0.089.

For CARHSP1 (UniProt Q9Y2V2), the NP40-soluble protein abundance is, setting by setting: (concentration: 0.1mM) 0.908 ± 0.026; (concentration: 0.5mM) 0.89 ± 0.023.

Regarding UniProt Q9Y2A7 and related entries, the NP40-soluble protein abundance by setting is: (concentration: 0.1mM) 1.01 ± 0.14; (concentration: 0.5mM) 1 ± 0.14.

Turning to SRPRB (UniProt Q9Y5M8), the NP40-soluble protein abundance reads like this: (concentration: 0.1mM) 1.01 ± 0.034; (concentration: 0.5mM) 1.05 ± 0.043.

Consider YARS2 (UniProt Q9Y2Z4), for which the NP40-soluble protein abundance came to 1.08 ± 0.1 (concentration: 0.1mM) and 1.03 ± 0.055 (concentration: 0.5mM).

In the case of WASF2 (UniProt Q9Y6W5), the NP40-soluble protein abundance came to 0.972 ± 0.048 (concentration: 0.1mM) and 0.963 ± 0.077 (concentration: 0.5mM).

Turning to UniProt Q9Y697 and related entries, the NP40-soluble protein abundance is, setting by setting: (concentration: 0.1mM) 1.01 ± 0.032; (concentration: 0.5mM) 0.999 ± 0.028.

Turning to UniProt Q9Y371 and related entries, the NP40-soluble protein abundance runs as follows: (concentration: 0.1mM) 0.995 ± 0.02; (concentration: 0.5mM) 0.967 ± 0.025.

For the target UBIAD1 (UniProt Q9Y5Z9), the NP40-soluble protein abundance (concentration: 0.1mM) was determined as 0.984 ± 0.065 and the NP40-soluble protein abundance (concentration: 0.5mM) was 0.953 ± 0.04.

UniProt Q9Y5W8 and related entries: the NP40-soluble protein abundance runs as follows: (concentration: 0.1mM) 1.04 ± 0.11; (concentration: 0.5mM) 1.01 ± 0.092.

UniProt Q9Y3C4 and related entries: the NP40-soluble protein abundance reads like this: (concentration: 0.1mM) 0.984 ± 0.032; (concentration: 0.5mM) 0.991 ± 0.054.

As for TLN1 (UniProt Q9Y490), the NP40-soluble protein abundance runs as follows: (concentration: 0.1mM) 0.994 ± 0.023; (concentration: 0.5mM) 1 ± 0.052.

With UniProt Q9Y6J0 and related entries, the NP40-soluble protein abundance (concentration: 0.1mM) was found to be 1.01 ± 0.041 and the NP40-soluble protein abundance (concentration: 0.5mM) came out at 1.01 ± 0.042.

On to BOLA1 (UniProt Q9Y3E2), for which the NP40-soluble protein abundance is, setting by setting: (concentration: 0.1mM) 0.922 ± 0.17; (concentration: 0.5mM) 0.862 ± 0.059.

Consider UniProt Q9Y5S9 and related entries, for which the NP40-soluble protein abundance runs as follows: (concentration: 0.1mM) 0.99 ± 0.066; (concentration: 0.5mM) 1.02 ± 0.058.

Take MSRB2 (UniProt Q9Y3D2): the NP40-soluble protein abundance (concentration: 0.1mM) was determined as 0.973 ± 0.1 and the NP40-soluble protein abundance (concentration: 0.5mM) was found to be 0.986 ± 0.075.

Turning to UniProt Q9Y3E7 and related entries, the NP40-soluble protein abundance runs as follows: (concentration: 0.1mM) 1.07 ± 0.14; (concentration: 0.5mM) 1.2 ± 0.075.

ATP6V1D (UniProt Q9Y5K8): the NP40-soluble protein abundance came out at 0.997 ± 0.018 (concentration: 0.1mM) and 0.971 ± 0.03 (concentration: 0.5mM).

On to NISCH (UniProt Q9Y2I1), for which the NP40-soluble protein abundance runs as follows: (concentration: 0.1mM) 1.02 ± 0.021; (concentration: 0.5mM) 0.989 ± 0.055.

DERA (UniProt Q9Y315): the NP40-soluble protein abundance is, setting by setting: (concentration: 0.1mM) 0.969 ± 0.026; (concentration: 0.5mM) 0.9649 ± 0.0081.

As to TMED5 (UniProt Q9Y3A6), the NP40-soluble protein abundance reads like this: (concentration: 0.1mM) 1.02 ± 0.086; (concentration: 0.5mM) 1.04 ± 0.094.
